{"source": "PubChem BioAssay AID662", "about": "(National Center for Advancing Translational Sciences (NCATS), 2007)", "note": "The other results are listed elsewhere or left out. These are further read-outs of the screen, such as a control signal, another cell line or another target. No call is given for them. Compounds called inactive in the main read-out are mostly missing here. The note in brackets gives the kind of curve behind each potency; many fits are weak."}
{"experiment": "Cell signaling CRE-BLA (Fsk stim)", "details": "CHO CRE-bla reporter (cAMP response element driving beta-lactamase), forskolin EC10, beta-lactamase ratio; measured here: 460 nm blue channel", "how_it_was_run": "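Forskolin analogue NKH 477 at EC10 stimulated CRE-driven beta-lactamase in CHO cells alongside compound dilution series. Beta-lactamase was measured with CCF4, excitation 405 nm, emission ratio 460/530 nm.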"}
{"smiles": "Cc1ccc(CNC(=O)c2cn(C3CCCCC3)c(=O)c3c2c2ccccc2n3C)o1", "AC50": "5.01 µM [rising, partial curve]"}
{"smiles": "Cc1coc2cc3oc(=O)c4c(c3cc12)CCCC4", "AC50": "0.00398 µM [falling, full curve, poor fit]"}
{"smiles": "O=C(CCNC(=O)c1ccc(Br)o1)NCc1ccccn1", "AC50": "5.01 µM [rising, single point]"}
{"smiles": "Cn1c(=O)c2c(-c3ccccc3)n3c4ccccc4ncc3c2n(C)c1=O", "AC50": "5.01 µM [rising, partial curve, poor fit]"}
{"smiles": "COc1ccccc1CCNC(=O)c1cnn2c(C(F)F)cc(C)nc12", "AC50": "15.8 µM [rising, partial curve]"}
{"smiles": "Nc1[nH]nc2nc3ccccc3nc12", "AC50": "25.1 µM [falling, single point]"}
{"smiles": "Cc1cc(C(=O)Cn2nnc3ccccc3c2=O)c(C)n1-c1c(C)n(C)n(-c2ccccc2)c1=O", "AC50": "25.1 µM [rising, single point]"}
{"smiles": "COc1ccc(Nc2ncnc3c2cnn3Cc2ccccc2)cc1", "AC50": "10 µM [rising, partial curve]"}
{"smiles": "COc1ccc2c(c1)c1ncn(Cc3ccco3)c(=O)c1n2C", "AC50": "0.398 µM [rising, full curve]"}
{"smiles": "CCN1C(=O)c2c(C)nc3ccccc3c2C1=O", "AC50": "6.31 µM [rising, partial curve]"}
{"smiles": "Cc1ccc(CCNC(=O)c2nnn(-c3cc(C)cc(C)c3)c2N)cc1", "AC50": "6.31 µM [falling, partial curve, poor fit]"}
{"smiles": "O=C1CC2(CCCCC2)Oc2ccc(O)cc21", "AC50": "5.01 µM [falling, partial curve]"}
{"smiles": "CCCC1CCC(C(=O)Nn2c(C)nc3ccccc3c2=O)CC1", "note": "(stereo not given)", "AC50": "3.98 µM [rising, single point]"}
{"smiles": "COc1ccc(C(C)=O)cc1COC(=O)Cc1n[nH]c(=O)c2ccccc12", "AC50": "10 µM [rising, single point]"}
{"smiles": "CCn1nc(C(=O)OCC(=O)NCCN2C(=O)CSC2=O)c2ccccc2c1=O", "AC50": "10 µM [rising, partial curve]"}
{"smiles": "CN(C)S(=O)(=O)N1CCCN(S(=O)(=O)N(C)C)CC1", "AC50": "0.00316 µM [falling, full curve, poor fit]"}
{"smiles": "CCOC(=O)C1CCN(C(=O)Nc2ccc3nc(C)c(C)nc3c2)CC1", "AC50": "20 µM [rising, single point]"}
{"smiles": "Oc1ccc(Cl)cc1/C=N/c1nccs1", "AC50": "0.158 µM [rising, full curve]"}
{"smiles": "CCOC(=O)c1[nH]cnc1C(=O)Nc1ccncc1", "AC50": "10 µM [rising, partial curve]"}
{"smiles": "CCOC(=O)C1CCN(C(=O)C2CCN(S(=O)(=O)c3c(C)noc3C)CC2)CC1", "AC50": "5.01 µM [rising, single point]"}
